Values quoted from earlier work as cited in patent publication US10675267B2, “Methods for detection and eradication of myeloid leukemia stem cells” (priority 2015, dated 2020).
Some results were stated once for a whole list of compounds, not compound by compound. At least one structure is not confirmed: it was looked up by name or label, or the drawing left a doubt.

Details: aqueous and biological media; cited from earlier work

Compound: CCC(OC)C(C)C1OC1C(O)C(C)/C=C/C=C(\C)C1OC(=O)CC(O)CCC(C)(O)C(OC(C)=O)/C=C/C1C (centres unmarked) [FD-895, reference compound]
- half-lives (t1/2): ≤ 15 min

Compound: pladienolide B
- half-lives (t1/2): ≤ 15 min
